Measured values published in patent US20220363870A1, “Stain Resistant Additive” (Arxada AG, priority 2019, published 2022).

Experiment: Household Stain Resistance Test (ASTM Method D4828)
Parameters: key: (−) for negative; (=) for same; (+) for positive result

Q: Which “Household stain resistance (degree of stain removal)” value (from here on “Household stain resistance”) (Ball-pen, Commercial Paint 1 with 0.05% Additive, relative to same commercial paint without additive) does the source give for “zinc di(ethyl 4,4,4-trifluoroacetoacetate) dihydrate [Additive]” here?
A: =

Q: And the “Household stain resistance” value (Ball-pen, Commercial Paint 1 with 0.5% Additive, relative to same commercial paint without additive)?
A: =

Q: What about the “Household stain resistance” value (Ball-pen, Commercial Paint 2 with 0.05% Additive, relative to same commercial paint without additive) of the same substance?
A: =

Q: And the “Household stain resistance” value (Ball-pen, Commercial Paint 2 with 0.5% Additive, relative to same commercial paint without additive)?
A: +

Q: And the “Household stain resistance” value (Ball-pen, paint of Table 1 with 0.05% by weight additive, relative to same paint without additive)?
A: =

Q: And the “Household stain resistance” value (Ball-pen, paint of Table 1 with 0.5% by weight additive, relative to same paint without additive)?
A: =

Q: And the “Household stain resistance” value (Coffee, Commercial Paint 1 with 0.05% Additive, relative to same commercial paint without additive)?
A: =

Q: And the “Household stain resistance” value (Coffee, Commercial Paint 1 with 0.5% Additive, relative to same commercial paint without additive)?
A: +

Q: What about the “Household stain resistance” value (Coffee, Commercial Paint 2 with 0.05% Additive, relative to same commercial paint without additive) of the same substance?
A: =

Q: And the “Household stain resistance” value (Coffee, Commercial Paint 2 with 0.5% Additive, relative to same commercial paint without additive)?
A: +

Q: What about the “Household stain resistance” value (Coffee, paint of Table 1 with 0.05% by weight additive, relative to same paint without additive) of the same substance?
A: =

Q: And the “Household stain resistance” value (Coffee, paint of Table 1 with 0.5% by weight additive, relative to same paint without additive)?
A: SI −

Q: And the “Household stain resistance” value (Crayon, Commercial Paint 1 with 0.05% Additive, relative to same commercial paint without additive)?
A: =

Q: And the “Household stain resistance” value (Crayon, Commercial Paint 1 with 0.5% Additive, relative to same commercial paint without additive)?
A: =

Q: And the “Household stain resistance” value (Crayon, Commercial Paint 2 with 0.05% Additive, relative to same commercial paint without additive)?
A: =

Q: What about the “Household stain resistance” value (Crayon, Commercial Paint 2 with 0.5% Additive, relative to same commercial paint without additive) of the same substance?
A: =

Q: And the “Household stain resistance” value (Crayon, paint of Table 1 with 0.05% by weight additive, relative to same paint without additive)?
A: =

Q: What about the “Household stain resistance” value (Crayon, paint of Table 1 with 0.5% by weight additive, relative to same paint without additive) of the same substance?
A: =

Q: What about the “Household stain resistance” value (Ketchup, Commercial Paint 1 with 0.05% Additive, relative to same commercial paint without additive) of the same substance?
A: =

Q: What about the “Household stain resistance” value (Ketchup, Commercial Paint 1 with 0.5% Additive, relative to same commercial paint without additive) of the same substance?
A: =

Q: What about the “Household stain resistance” value (Ketchup, Commercial Paint 2 with 0.05% Additive, relative to same commercial paint without additive) of the same substance?
A: =

Q: And the “Household stain resistance” value (Ketchup, Commercial Paint 2 with 0.5% Additive, relative to same commercial paint without additive)?
A: =

Q: And the “Household stain resistance” value (Ketchup, paint of Table 1 with 0.05% by weight additive, relative to same paint without additive)?
A: =

Q: And the “Household stain resistance” value (Ketchup, paint of Table 1 with 0.5% by weight additive, relative to same paint without additive)?
A: =

Q: What about the “Household stain resistance” value (Lipstick, Commercial Paint 1 with 0.05% Additive, relative to same commercial paint without additive) of the same substance?
A: =

Q: What about the “Household stain resistance” value (Lipstick, Commercial Paint 1 with 0.5% Additive, relative to same commercial paint without additive) of the same substance?
A: +

Q: What about the “Household stain resistance” value (Lipstick, Commercial Paint 2 with 0.05% Additive, relative to same commercial paint without additive) of the same substance?
A: =

Q: What about the “Household stain resistance” value (Lipstick, Commercial Paint 2 with 0.5% Additive, relative to same commercial paint without additive) of the same substance?
A: +

Q: What about the “Household stain resistance” value (Lipstick, paint of Table 1 with 0.05% by weight additive, relative to same paint without additive) of the same substance?
A: =

Q: What about the “Household stain resistance” value (Lipstick, paint of Table 1 with 0.5% by weight additive, relative to same paint without additive) of the same substance?
A: +

Q: What about the “Household stain resistance” value (Marker, Commercial Paint 1 with 0.05% Additive, relative to same commercial paint without additive) of the same substance?
A: =

Q: And the “Household stain resistance” value (Marker, Commercial Paint 1 with 0.5% Additive, relative to same commercial paint without additive)?
A: =

Q: And the “Household stain resistance” value (Marker, Commercial Paint 2 with 0.05% Additive, relative to same commercial paint without additive)?
A: =

Q: And the “Household stain resistance” value (Marker, Commercial Paint 2 with 0.5% Additive, relative to same commercial paint without additive)?
A: =

Q: What about the “Household stain resistance” value (Marker, paint of Table 1 with 0.05% by weight additive, relative to same paint without additive) of the same substance?
A: =

Q: And the “Household stain resistance” value (Marker, paint of Table 1 with 0.5% by weight additive, relative to same paint without additive)?
A: +

Q: And the “Household stain resistance” value (Mustard, Commercial Paint 1 with 0.05% Additive, relative to same commercial paint without additive)?
A: =

Q: What about the “Household stain resistance” value (Mustard, Commercial Paint 1 with 0.5% Additive, relative to same commercial paint without additive) of the same substance?
A: =

Q: And the “Household stain resistance” value (Mustard, Commercial Paint 2 with 0.05% Additive, relative to same commercial paint without additive)?
A: =

Q: What about the “Household stain resistance” value (Mustard, Commercial Paint 2 with 0.5% Additive, relative to same commercial paint without additive) of the same substance?
A: =

Q: What about the “Household stain resistance” value (Mustard, paint of Table 1 with 0.05% by weight additive, relative to same paint without additive) of the same substance?
A: −

Q: What about the “Household stain resistance” value (Mustard, paint of Table 1 with 0.5% by weight additive, relative to same paint without additive) of the same substance?
A: SI +

Q: What about the “Household stain resistance” value (Pencil, paint of Table 1 with 0.05% by weight additive, relative to same paint without additive) of the same substance?
A: =

Q: And the “Household stain resistance” value (Pencil, paint of Table 1 with 0.5% by weight additive, relative to same paint without additive)?
A: +

Q: And the “Household stain resistance” value (Red wine, Commercial Paint 1 with 0.05% Additive, relative to same commercial paint without additive)?
A: SI +

Q: And the “Household stain resistance” value (Red wine, Commercial Paint 1 with 0.5% Additive, relative to same commercial paint without additive)?
A: =

Q: What about the “Household stain resistance” value (Red wine, Commercial Paint 2 with 0.05% Additive, relative to same commercial paint without additive) of the same substance?
A: =

Q: And the “Household stain resistance” value (Red wine, Commercial Paint 2 with 0.5% Additive, relative to same commercial paint without additive)?
A: =

Q: What about the “Household stain resistance” value (Red wine, paint of Table 1 with 0.05% by weight additive, relative to same paint without additive) of the same substance?
A: SI −

Q: And the “Household stain resistance” value (Red wine, paint of Table 1 with 0.5% by weight additive, relative to same paint without additive)?
A: =
